This is one part of the list. Single values are uncertain, as repeats are few or missing.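 The apoptosis fraction was the count of cleaved-PARP antibody-stained nuclei relative to all DNA-stained nuclei, imaged in 1,536-well plates. Screening doses were set so most cells survived, and baseline and induced cleaved-PARP levels vary greatly across cell lines.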
What was measured:
Test in all cases: cleaved PARP positive nuclei fraction relative to DMSO control; melanoma cells; higher = more apoptosis
Details in all cases: library dose: low library concentration; 72 h
[1] = tested on: A101D
[2] = tested on: A2058
[3] = tested on: A375
[4] = tested on: C32
[5] = tested on: CBRC008 (line from a melanoma biopsy)
[6] = tested on: CBRC014 (line from a melanoma biopsy)
[7] = tested on: CBRC016 (line from a melanoma biopsy)
[8] = tested on: CBRC017 (line from a melanoma biopsy)

Cn1cnc2c(F)c(Nc3ccc(Br)cc3Cl)c(C(=O)NOCCO)cc21 [selumetinib] + C=CCNC1=C2C[C@@H](C)C[C@H](OC)[C@H](O)[C@@H](C)/C=C(\C)[C@H](OC(N)=O)[C@@H](OC)/C=C\C=C(/C)C(=O)NC(=CC1=O)C2=O [Tanespimycin] (first compound 0.015 µM, partner dose 0.002 µM)
cleaved PARP positive nuclei fraction [1]: 49.7% | cleaved PARP positive nuclei fraction [2]: 77.7% | cleaved PARP positive nuclei fraction [3]: 105% | cleaved PARP positive nuclei fraction [4]: 101% | cleaved PARP positive nuclei fraction [5]: 92.5% | cleaved PARP positive nuclei fraction [6]: 80.6% | cleaved PARP positive nuclei fraction [7]: 243% | cleaved PARP positive nuclei fraction [8]: 302%

CCN(CC)CCNC(=O)c1c(C)[nH]c(/C=C2\C(=O)Nc3ccc(F)cc32)c1C [sunitinib] + CS(=O)(=O)CCNCc1ccc(-c2ccc3ncnc(Nc4ccc(OCc5cccc(F)c5)c(Cl)c4)c3c2)o1 [lapatinib] (first compound 0.4 µM, partner dose 0.8 µM)
cleaved PARP positive nuclei fraction [1]: 224% | cleaved PARP positive nuclei fraction [2]: 137% | cleaved PARP positive nuclei fraction [3]: 520% | cleaved PARP positive nuclei fraction [4]: 81.4% | cleaved PARP positive nuclei fraction [5]: 173% | cleaved PARP positive nuclei fraction [6]: 79.1% | cleaved PARP positive nuclei fraction [7]: 75% | cleaved PARP positive nuclei fraction [8]: 220%

Cn1cnc2c(F)c(Nc3ccc(Br)cc3Cl)c(C(=O)NOCCO)cc21 [selumetinib] + C=C(c1ccc(C(=O)O)cc1)c1cc2c(cc1C)C(C)(C)CCC2(C)C [Bexarotene] (first compound 0.015 µM, partner dose 2 µM)
cleaved PARP positive nuclei fraction [1]: 104% | cleaved PARP positive nuclei fraction [2]: 68.5% | cleaved PARP positive nuclei fraction [3]: 115% | cleaved PARP positive nuclei fraction [4]: 92.1% | cleaved PARP positive nuclei fraction [5]: 85.9% | cleaved PARP positive nuclei fraction [6]: 79.4% | cleaved PARP positive nuclei fraction [7]: 104% | cleaved PARP positive nuclei fraction [8]: 135%

CCN(CC)CCNC(=O)c1c(C)[nH]c(/C=C2\C(=O)Nc3ccc(F)cc32)c1C [sunitinib] + O=C(O)C(=O)Nc1sc2c(c1C(=O)O)CCNC2 [TCS401] (first compound 0.4 µM, partner dose 1.66667 µM)
cleaved PARP positive nuclei fraction [1]: 33.4% | cleaved PARP positive nuclei fraction [2]: 71.1% | cleaved PARP positive nuclei fraction [4]: 85% | cleaved PARP positive nuclei fraction [5]: 198% | cleaved PARP positive nuclei fraction [6]: 83.3% | cleaved PARP positive nuclei fraction [7]: 127% | cleaved PARP positive nuclei fraction [8]: 128%

CC1(C)CCC(c2ccc(Cl)cc2)=C(CN2CCN(c3ccc(C(=O)NS(=O)(=O)c4ccc(N[C@H](CCN5CCOCC5)CSc5ccccc5)c(S(=O)(=O)C(F)(F)F)c4)cc3)CC2)C1 + Nc1nc(F)nc2c1ncn2[C@@H]1O[C@H](CO)[C@@H](O)[C@@H]1O [fludarabine] (first compound 0.4 µM, partner dose 0.2 µM)
cleaved PARP positive nuclei fraction [1]: 212% | cleaved PARP positive nuclei fraction [2]: 453% | cleaved PARP positive nuclei fraction [3]: 4660% | cleaved PARP positive nuclei fraction [4]: 544% | cleaved PARP positive nuclei fraction [5]: 325% | cleaved PARP positive nuclei fraction [6]: 511% | cleaved PARP positive nuclei fraction [7]: 630% | cleaved PARP positive nuclei fraction [8]: 365%

NC(=O)c1ccc(N(C(N)=O)c2c(F)cccc2F)nc1-c1ccc(F)cc1F + COCC[n+]1c2c(n(Cc3cnccn3)c1C)C(=O)c1ccccc1C2=O [YM155] (first compound 0.4 µM, partner dose 0.0004 µM)
cleaved PARP positive nuclei fraction [1]: 25.6% | cleaved PARP positive nuclei fraction [2]: 77.3% | cleaved PARP positive nuclei fraction [3]: 118% | cleaved PARP positive nuclei fraction [4]: 72.4% | cleaved PARP positive nuclei fraction [5]: 392% | cleaved PARP positive nuclei fraction [6]: 95.1% | cleaved PARP positive nuclei fraction [7]: 96.8% | cleaved PARP positive nuclei fraction [8]: 74.1%

CC1(C)CCC(c2ccc(Cl)cc2)=C(CN2CCN(c3ccc(C(=O)NS(=O)(=O)c4ccc(N[C@H](CCN5CCOCC5)CSc5ccccc5)c(S(=O)(=O)C(F)(F)F)c4)cc3)CC2)C1 + C=CCNC1=C2C[C@@H](C)C[C@H](OC)[C@H](O)[C@@H](C)/C=C(\C)[C@H](OC(N)=O)[C@@H](OC)/C=C\C=C(/C)C(=O)NC(=CC1=O)C2=O [Tanespimycin] (first compound 0.4 µM, partner dose 0.002 µM)
cleaved PARP positive nuclei fraction [1]: 173% | cleaved PARP positive nuclei fraction [2]: 51.3% | cleaved PARP positive nuclei fraction [3]: 291% | cleaved PARP positive nuclei fraction [4]: 263% | cleaved PARP positive nuclei fraction [5]: 840% | cleaved PARP positive nuclei fraction [6]: 677% | cleaved PARP positive nuclei fraction [7]: 705% | cleaved PARP positive nuclei fraction [8]: 411%

C[C@]1(O)C[C@@H](c2nc(-c3ccc4ccc(-c5ccccc5)nc4c3)c3c(N)nccn32)C1 + Cn1cc(/C=C2\C(=O)Nc3cccnc32)c2ccccc21 [GW441756] (first compound 0.4 µM, partner dose 0.4 µM)
cleaved PARP positive nuclei fraction [1]: 26.5% | cleaved PARP positive nuclei fraction [2]: 164% | cleaved PARP positive nuclei fraction [4]: 30.5% | cleaved PARP positive nuclei fraction [5]: 140% | cleaved PARP positive nuclei fraction [6]: 99.1% | cleaved PARP positive nuclei fraction [7]: 60.6% | cleaved PARP positive nuclei fraction [8]: 92.9%

NC(=O)c1ccc(N(C(N)=O)c2c(F)cccc2F)nc1-c1ccc(F)cc1F + CO[C@H]1C[C@@H]2CC[C@@H](C)[C@@](O)(O2)C(=O)C(=O)N2CCCC[C@H]2C(=O)O[C@H]([C@H](C)C[C@@H]2CC[C@@H](OCCO)[C@H](OC)C2)CC(=O)[C@H](C)/C=C(\C)[C@@H](O)[C@@H](OC)C(=O)[C@H](C)C[C@H](C)/C=C/C=C/C=C/1C [everolimus] (first compound 0.4 µM, partner dose 0.02 µM)
cleaved PARP positive nuclei fraction [1]: 34.2% | cleaved PARP positive nuclei fraction [2]: 128% | cleaved PARP positive nuclei fraction [3]: 1300% | cleaved PARP positive nuclei fraction [4]: 91.5% | cleaved PARP positive nuclei fraction [5]: 71.2% | cleaved PARP positive nuclei fraction [6]: 98.6% | cleaved PARP positive nuclei fraction [7]: 137% | cleaved PARP positive nuclei fraction [8]: 125%

CN(c1ncccc1CNc1nc(Nc2ccc3c(c2)CC(=O)N3)ncc1C(F)(F)F)S(C)(=O)=O + COCC[n+]1c2c(n(Cc3cnccn3)c1C)C(=O)c1ccccc1C2=O [YM155] (first compound 0.08 µM, partner dose 0.0004 µM)
cleaved PARP positive nuclei fraction [1]: 53.9% | cleaved PARP positive nuclei fraction [2]: 114% | cleaved PARP positive nuclei fraction [3]: 163% | cleaved PARP positive nuclei fraction [4]: 98.8% | cleaved PARP positive nuclei fraction [5]: 281% | cleaved PARP positive nuclei fraction [6]: 111% | cleaved PARP positive nuclei fraction [7]: 107% | cleaved PARP positive nuclei fraction [8]: 109%

C[C@]1(O)C[C@@H](c2nc(-c3ccc4ccc(-c5ccccc5)nc4c3)c3c(N)nccn32)C1 + COc1ccc(-c2ccc3c(N4CCOCC4)nc(N4C[C@@H](C)O[C@@H](C)C4)nc3n2)cc1CO [KU0063794] (first compound 0.4 µM, partner dose 0.02 µM)
cleaved PARP positive nuclei fraction [1]: 20% | cleaved PARP positive nuclei fraction [2]: 82.2% | cleaved PARP positive nuclei fraction [4]: 82.3% | cleaved PARP positive nuclei fraction [5]: 117% | cleaved PARP positive nuclei fraction [6]: 95% | cleaved PARP positive nuclei fraction [7]: 75.5% | cleaved PARP positive nuclei fraction [8]: 158%

NC(=O)c1ccc(N(C(N)=O)c2c(F)cccc2F)nc1-c1ccc(F)cc1F + CC(C)CCN1c2nc(Nc3cc(F)c(O)c(F)c3)ncc2N(C)C(=O)C1C [BID1870] (first compound 0.4 µM, partner dose 0.2 µM)
cleaved PARP positive nuclei fraction [1]: 33.8% | cleaved PARP positive nuclei fraction [2]: 66.5% | cleaved PARP positive nuclei fraction [4]: 43.6% | cleaved PARP positive nuclei fraction [5]: 99.7% | cleaved PARP positive nuclei fraction [6]: 93.7% | cleaved PARP positive nuclei fraction [7]: 75.7% | cleaved PARP positive nuclei fraction [8]: 115%

Cn1cnc2c(F)c(Nc3ccc(Br)cc3Cl)c(C(=O)NOCCO)cc21 [selumetinib] + Cc1cc([N+](=O)[O-])ccc1NS(=O)(=O)c1cc(Cl)ccc1Cl [FH535] (first compound 0.015 µM, partner dose 1 µM)
cleaved PARP positive nuclei fraction [1]: 32.9% | cleaved PARP positive nuclei fraction [2]: 79.9% | cleaved PARP positive nuclei fraction [4]: 194% | cleaved PARP positive nuclei fraction [5]: 424% | cleaved PARP positive nuclei fraction [6]: 120% | cleaved PARP positive nuclei fraction [7]: 314% | cleaved PARP positive nuclei fraction [8]: 523%

CC(=O)O[C@@]12CO[C@@H]1C[C@H](O)[C@@]1(C)C(=O)[C@H](O)C3=C(C)[C@@H](OC(=O)[C@H](O)[C@@H](NC(=O)OC(C)(C)C)c4ccccc4)C[C@@](O)([C@@H](OC(=O)c4ccccc4)[C@H]21)C3(C)C [Docetaxel] + CC(C)C[C@H](NC(=O)[C@H](Cc1ccccc1)NC(=O)c1cnccn1)B(O)O [Bortezomib] (first compound 0.0001 µM, partner dose 0.001 µM)
cleaved PARP positive nuclei fraction [1]: 295% | cleaved PARP positive nuclei fraction [2]: 4800% | cleaved PARP positive nuclei fraction [3]: 5800% | cleaved PARP positive nuclei fraction [4]: 176% | cleaved PARP positive nuclei fraction [5]: 456% | cleaved PARP positive nuclei fraction [6]: 208% | cleaved PARP positive nuclei fraction [7]: 433% | cleaved PARP positive nuclei fraction [8]: 147%

C[C@]1(O)C[C@@H](c2nc(-c3ccc4ccc(-c5ccccc5)nc4c3)c3c(N)nccn32)C1 + Nc1nc(F)nc2c1ncn2[C@@H]1O[C@H](CO)[C@@H](O)[C@@H]1O [fludarabine] (first compound 0.4 µM, partner dose 0.2 µM)
cleaved PARP positive nuclei fraction [1]: 43.2% | cleaved PARP positive nuclei fraction [2]: 130% | cleaved PARP positive nuclei fraction [3]: 7190% | cleaved PARP positive nuclei fraction [4]: 216% | cleaved PARP positive nuclei fraction [5]: 91.6% | cleaved PARP positive nuclei fraction [6]: 102% | cleaved PARP positive nuclei fraction [7]: 52.9% | cleaved PARP positive nuclei fraction [8]: 106%

Cn1sc(=O)n(Cc2ccccc2)c1=O + O=C(O)[C@@H]1[O][Sb](=[O])([O][Sb]2(=[O])[O][C@H]([C@H](O)CO)[C@H](O)[C@H](C(=O)O)[O]2)[O][C@H]([C@H](O)CO)[C@@H]1O [stibogluconate] (first compound 0.4 µM, partner dose 2 µM)
cleaved PARP positive nuclei fraction [1]: 91.3% | cleaved PARP positive nuclei fraction [2]: 132% | cleaved PARP positive nuclei fraction [3]: 167% | cleaved PARP positive nuclei fraction [4]: 44.3% | cleaved PARP positive nuclei fraction [5]: 155% | cleaved PARP positive nuclei fraction [6]: 76% | cleaved PARP positive nuclei fraction [7]: 22.9% | cleaved PARP positive nuclei fraction [8]: 136%

NC(=O)c1ccc(N(C(N)=O)c2c(F)cccc2F)nc1-c1ccc(F)cc1F + Oc1nc(-c2ccc(C(F)(F)F)cc2)nc2c1CSCC2 [XAV939] (first compound 0.4 µM, partner dose 2 µM)
cleaved PARP positive nuclei fraction [1]: 29.6% | cleaved PARP positive nuclei fraction [2]: 98.9% | cleaved PARP positive nuclei fraction [4]: 147% | cleaved PARP positive nuclei fraction [5]: 98.8% | cleaved PARP positive nuclei fraction [6]: 101% | cleaved PARP positive nuclei fraction [7]: 32.5% | cleaved PARP positive nuclei fraction [8]: 147%

CC1(C)CCC(c2ccc(Cl)cc2)=C(CN2CCN(c3ccc(C(=O)NS(=O)(=O)c4ccc(N[C@H](CCN5CCOCC5)CSc5ccccc5)c(S(=O)(=O)C(F)(F)F)c4)cc3)CC2)C1 + COc1ccc2c(c1)CCC1C2CCC2(C)C(NCCCCCCN3C(=O)C=CC3=O)CCC12 [U73122] (first compound 0.4 µM, partner dose 0.4 µM)
cleaved PARP positive nuclei fraction [1]: 15.5% | cleaved PARP positive nuclei fraction [2]: 209% | cleaved PARP positive nuclei fraction [4]: 166% | cleaved PARP positive nuclei fraction [5]: 479% | cleaved PARP positive nuclei fraction [6]: 522% | cleaved PARP positive nuclei fraction [7]: 497% | cleaved PARP positive nuclei fraction [8]: 567%
